Here are results for 62 compounds from PubChem BioAssay AID493014 (National Center for Advancing Translational Sciences (NCATS), 2011).

The nature of the experiment: qHTS Assay to Find Inhibitors of Chronic Active B-Cell Receptor Signaling. To be noted: ABC-DLBCL IkBa-CBG/CBR reporter, luminescence ratio (green luciferase fused to IkBa over red control in TMD8 lymphoma cells), 4 h. Put shortly: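 Compounds up to 46 uM were incubated four hours with TMD8 cells whose green CBG68 luciferase is fused to IkappaBalpha; red CBR luminescence normalised the signal, and concentration-effect curves were fitted to fusion, red and ratio data.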
On the technique in general: qHTS replaces the single test concentration by a dilution series.

Setting [1] is: measured here: CBR red luminescence, cell number.
Where [2] appears, read: measured here: IkBa-CBG green luminescence.

The list shows a part of the results. Shown are side measurements of this screen, not its main read-out; they come without a call. Compounds called inactive in the main read-out are mostly missing here. Words in brackets tell the shape of the fitted curve; partial curves, single points and poor fits give uncertain potencies.

On to `O=C(COc1cccc2c1CCN(Cc1ccccc1F)C2=O)N1CCOCC1`, for which the AC50 under setting [1] is 22.4 µM [falling, single point].

As to `Cn1c(SCC(=O)N2CCCCCC2)nc2c(c1=O)SCC2`, the AC50 under setting [1] is 6.31 µM [falling, partial curve, poor fit].

In the case of `Cn1cc(/C=C(\NC(=O)c2ccccc2Cl)C(=O)N2CCOCC2)c2ccccc21`, the AC50 under setting [1] was 4.47 µM [falling, single point].

`COC(=O)c1sc(NC(=S)NC(=O)c2ccccc2C)nc1C`: the AC50 under setting [1] was 22.4 µM [falling, single point].

`O=C(c1ccco1)N1CCN(Cc2csc(-c3ccccc3Cl)n2)CC1`: the AC50 under setting [1] was 14.1 µM [falling, partial curve, poor fit].

On to `Cn1nc(C(=O)OCCN2C(=O)c3ccccc3C2=O)c2ccccc2c1=O`, for which the AC50 under setting [1] is 0.0517 µM [falling, full curve, poor fit].

As for `CC(C)CC(COCc1ccc(Cl)cc1)N1CCN(C(=O)c2ccc(C(F)(F)F)cc2)CCC1=O` (stereo unspecified), the AC50 under setting [1] was 0.92 µM [falling, full curve, poor fit].

For `O=C(NC(=S)N1CCOCC1)c1cn(-c2ccccc2)nc1-c1ccccc1`, the AC50 was 5.8 µM [rising, full curve] under setting [1] and 18.4 µM [falling, partial curve] under setting [2].

On to `Cc1cc(N2CCN(C)CC2)ccc1NC(=O)c1cccc(S(=O)(=O)N2CCc3ccccc3C2)c1`, for which, under setting [1], the AC50 is 35.5 µM [falling, single point].

For the compound `O=C(NNC1=C(C(=O)C(F)(F)F)CCC1)c1ccc(Cl)cc1`, the AC50 under setting [1] was 2.24 µM [falling, full curve, poor fit].

Turning to `CCOC(=O)c1ccc(N2CCN(c3cccc(Cl)c3)CC2)c(NC(=O)Nc2ccc(Cl)cc2)c1`, the AC50 under setting [1] is 0.501 µM [rising, full curve].

Regarding `COc1cc2c(cc1OC)-c1cc(Nc3cccc(C)c3)nc(=O)n1CC2`, the AC50 reads like this: under setting [1], 3.16 µM [rising, full curve, poor fit]; under setting [2], 4.47 µM [falling, partial curve, poor fit].

Regarding `COc1ccc(/C=N/NC(=O)Cc2csc(Nc3cccc(C(F)(F)F)c3)n2)c(OC)c1`, the AC50 under setting [1] was 35.5 µM [falling, single point].

For `CC1(OC(=O)C2CCCC2)C(=O)C=C2C=C(c3ccsc3)N(Cc3ccco3)C=C2C1=O` (stereo unspecified), the AC50 under setting [1] was 10 µM [rising, partial curve, poor fit].

Regarding `Nc1sc(-c2ccccc2)n[n+]1Cc1cccc2cccnc12`, under setting [1], the AC50 was 35.5 µM [falling, single point].

As for `COc1ccc(NS(=O)(=O)c2ccc(SC)cc2)cc1`, under setting [1], the AC50 is 16.4 µM [falling, single point].

For the compound `S=c1[nH]nc(Nc2ccccc2Cl)s1`, the AC50 under setting [1] was 35.5 µM [falling, single point].

`O=C1C2C3C=CC(C3)C2C(=O)N1Nc1c(Cl)cc(Cl)cc1Cl` (stereo unspecified): the AC50 under setting [1] was 2 µM [falling, partial curve, poor fit].

`CCOc1cccc(/C=C2\NC(=S)N(c3ccccc3)C2=O)c1O`: the AC50 under setting [1] is 2.24 µM [falling, full curve].

Consider `O=C(NC(=S)/C(=C1\CCCCCN1)[N+](=O)[O-])c1ccccc1`, for which, under setting [1], the AC50 was 13 µM [rising, single point].

Consider `CC(Sc1cccc[n+]1[O-])C(=O)Nc1ccc([N+](=O)[O-])cc1Cl` (stereo unspecified), for which, under setting [2], the AC50 was 17.8 µM [falling, partial curve, poor fit].

Consider `CC1SCC(=O)N(CC(=O)Nc2ccc3c(c2)OCO3)C1=O` (stereo unspecified), for which, under setting [1], the AC50 was 0.259 µM [rising, full curve, poor fit].

As for `Cn1c(N)c(C(=O)COC(=O)c2cc(S(=O)(=O)N3CCCCC3)ccc2Cl)c(=O)n(C)c1=O`, the AC50 under setting [1] is 25.9 µM [rising, single point].

Regarding `CC(C)(C)c1ccc(-c2nc(-c3ccncc3)no2)cc1`, under setting [1], the AC50 is 20.6 µM [rising, single point].

In the case of `O=C(NC1CCCCC1)c1cc(-c2ccco2)on1`, the AC50 under setting [1] was 1.58 µM [falling, full curve, poor fit].

Turning to `COc1ccc(N2C(=O)CC(N3CCN(c4ccc(C(=O)c5cccnc5)cc4)CC3)C2=O)cc1` (stereo unspecified), the AC50 under setting [1] is 0.891 µM [falling, full curve, poor fit].

As to `COc1ccc2sc(-c3ccccc3OC)c(-c3ccc(O)cc3)c2c1`, the AC50 under setting [1] is 8.2 µM [falling, partial curve] and the AC50 under setting [2] was 13 µM [rising, partial curve, poor fit].

As for `CCOC(=O)C1CCN(C(=O)CNC(=O)OC(C)(C)C)CC1`, the AC50 under setting [1] was 29.1 µM [rising, single point].

Consider `CC1CCN(C(=O)Cn2cc([N+](=O)[O-])ccc2=O)c2ccccc2S1` (stereo unspecified), for which the AC50 under setting [1] is 6.51 µM [rising, single point].

With `COc1ccccc1/C=N/NC(=S)NCc1ccco1`, the AC50 under setting [1] was 14.1 µM [falling, partial curve, poor fit].

As to `Cc1ccc(NC(=O)Nc2cccs2)nc1`, the AC50 under setting [1] is 6.51 µM [falling, partial curve, poor fit].

Consider `Cc1ccnc(N/N=C/c2ccccc2)n1`, for which the AC50 under setting [1] is 16.4 µM [falling, partial curve].

Consider `CCN(CC)C(=O)CSc1ncccc1-c1nc2ccccc2[nH]1`, for which the AC50 under setting [1] was 2.82 µM [falling, full curve, poor fit].

As to `COC(=O)N/N=C/c1ccccc1`, under setting [1], the AC50 was 25.1 µM [rising, single point].

On to `CCOc1ccccc1C(=O)Nc1cc2c(cc1N1CCCC1)n(CC)c(=O)n2CC`, for which the AC50 under setting [1] was 11.2 µM [falling, single point].

For `O=C(NCc1ccco1)C1CCN(C(=O)Cc2ccccc2)CC1`, the AC50 under setting [1] was 6.51 µM [rising, single point].

With `COc1cccc(N2CCN(C(C)C(=O)NC34CC5CC(CC(C5)C3)C4)CC2)c1` (stereo unspecified), the AC50 under setting [1] is 3.16 µM [falling, partial curve, poor fit].

Consider `Cc1cccc(-n2c3nc(=O)[nH]c(=O)c-3cc3cc([N+](=O)[O-])ccc32)c1`, for which, under setting [2], the AC50 is 6.51 µM [falling, partial curve].

Turning to `Cc1ccc(-c2nc3ccccc3[nH]2)cc1NC(=S)NC(=O)c1ccccc1Br`, under setting [1], the AC50 was 1.58 µM [falling, full curve, poor fit].

As for `COc1ccc2nc(NC(=O)c3sc4nc(C)cc(C)c4c3N)sc2c1`, the AC50 under setting [1] was 35.5 µM [falling, single point].

In the case of `CCCCC(c1nnnn1CCOC)N1CCN(C(=O)c2ccco2)CC1` (stereo unspecified), under setting [1], the AC50 is 6.51 µM [rising, single point].

On to `CCC(C(=O)Nc1ncc(C)s1)c1ccccc1` (stereo unspecified), for which the AC50 under setting [1] is 7.08 µM [falling, partial curve, poor fit].

Take `CCOC(=O)C1=CC[C@H]2c3c(c4ccccc4n3C)C(=O)C1N2S(=O)(=O)c1ccc(C)cc1`: the AC50 under setting [1] was 18.4 µM [falling, single point].

For the compound `O=C1/C(=C/c2ccco2)SC(=S)N1CC1CCCO1` (stereo unspecified), the AC50 under setting [1] was 3.98 µM [rising, partial curve, poor fit].

On to `Cc1ccc(N(CCC#N)C(=O)CSc2nnc3ccccn23)cc1`, for which the AC50 under setting [1] is 23.1 µM [rising, partial curve, poor fit].

As for `CCCc1nn(CCc2ccccn2)c(N)c1CC`, the AC50 under setting [1] is 8.2 µM [rising, partial curve, poor fit].

Regarding `NS(=O)(=O)c1ccc(NC(=S)NC(=O)c2cccs2)cc1`, the AC50 under setting [1] is 20 µM [falling, partial curve, poor fit].

Regarding `Cc1ccc(S(=O)(=O)NCCC(=O)Nc2cccc(S(=O)(=O)N3CCCC3)c2)cc1C`, under setting [1], the AC50 is 18.4 µM [falling, partial curve, poor fit].

On to `CCC(C)N(CC(=O)Nc1cccc(C)c1C)C(=O)CCl` (stereo unspecified), for which the AC50 under setting [1] is 20 µM [falling, single point].

For the compound `Cc1oc(C(=O)Nc2ccc(C(=O)O)cc2)cc1COc1ccccc1`, under setting [1], the AC50 is 0.0259 µM [rising, full curve, poor fit].

Take `CCOc1ccccc1C1C(C#N)=C(N)Nc2onc(-c3ccccc3)c21` (stereo unspecified): under setting [1], the AC50 is 35.5 µM [falling, single point].

For the compound `O=C(OCC(=O)N1CCc2ccccc2C1)c1cccs1`, the AC50 under setting [1] is 10 µM [falling, single point].

With `O=C(Nc1cc(Cl)cc(Cl)c1)C1C2C=CC3(O2)C1C(=O)N(CCCN1CCOCC1)C3C(=O)NC1CCCCC1` (stereo unspecified), under setting [1], the AC50 is 7.08 µM [rising, full curve, poor fit].

For the compound `COc1cccc(NC(=O)CSc2nc(C)cs2)c1`, the AC50 under setting [1] is 0.366 µM [falling, full curve, poor fit].

`C=CCn1c(Cc2ccc(OC)cc2)nnc1SCC(N)=O`: the AC50 under setting [1] was 1.64 µM [rising, partial curve, poor fit].

Regarding `O=C(O)c1ccc(CS(=O)(=O)c2cccc(C(F)(F)F)c2)o1`, under setting [1], the AC50 is 3.16 µM [rising, single point].

As to `CN(C(=O)c1cc2ccccc2o1)c1c(N)n(Cc2ccccc2)c(=O)[nH]c1=O`, the AC50 under setting [1] was 6.51 µM [rising, partial curve, poor fit].

For the compound `COc1ccc2oc(C(=O)OCC(=O)NC(=O)c3ccccc3)c(C)c2c1`, the AC50 under setting [1] is 35.5 µM [rising, single point].

Consider `O=C(N/N=C/c1cccs1)c1cncc(Br)c1`, for which the AC50 reads like this: under setting [1], 22.4 µM [falling, partial curve]; under setting [2], 35.5 µM [falling, single point].

Take `N#Cc1ccsc1NC(=O)COC(=O)c1ccc2ccccc2c1`: the AC50 under setting [1] is 1.84 µM [rising, partial curve, poor fit].

Regarding `c1ccc(-n2ncc3c2ncn2c(C4CCCCC4)nnc32)cc1`, under setting [1], the AC50 is 0.501 µM [rising, full curve, poor fit].

Take `CCOc1cc(C(=O)Nc2ccc(N3CCN(S(C)(=O)=O)CC3)cc2)cc(OCC)c1OCC`: the AC50 under setting [1] is 2.06 µM [rising, partial curve, poor fit].

Broadly, the AC50 is the concentration giving half of the maximal activity seen.
